# In PMC12182300, “Biochemical impact of p300-mediated acetylation of replication protein A: Implications for DNA metabolic pathway choice” (The Journal of Biological Chemistry, 2025):
# Chains of the proteins cited; added tags and fusions are not shown. A change or cut given only in a name is not applied to a line headed by its entry. A line that says so, or that is headed by a name, gives the form on record, which may keep a tag or linker. Residues count along the entry.
# UniProt P27694, 1-441: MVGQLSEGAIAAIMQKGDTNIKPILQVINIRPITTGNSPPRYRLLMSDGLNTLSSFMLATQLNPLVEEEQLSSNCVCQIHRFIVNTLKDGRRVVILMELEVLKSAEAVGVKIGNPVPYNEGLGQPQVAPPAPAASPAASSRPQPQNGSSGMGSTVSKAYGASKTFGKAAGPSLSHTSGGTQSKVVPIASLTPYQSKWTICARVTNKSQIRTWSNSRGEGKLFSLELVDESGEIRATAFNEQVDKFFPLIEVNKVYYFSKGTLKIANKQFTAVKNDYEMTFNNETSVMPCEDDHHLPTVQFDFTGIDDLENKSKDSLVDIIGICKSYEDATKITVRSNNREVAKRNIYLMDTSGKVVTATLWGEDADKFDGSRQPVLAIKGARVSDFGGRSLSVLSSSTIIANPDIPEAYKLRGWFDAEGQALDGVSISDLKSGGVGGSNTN
# UniProt P27694, 1-180: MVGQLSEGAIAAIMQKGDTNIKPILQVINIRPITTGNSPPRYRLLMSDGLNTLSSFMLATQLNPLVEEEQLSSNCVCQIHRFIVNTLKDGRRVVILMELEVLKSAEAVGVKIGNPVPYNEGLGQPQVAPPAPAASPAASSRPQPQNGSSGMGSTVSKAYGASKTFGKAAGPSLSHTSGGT
# UniProt Q09472: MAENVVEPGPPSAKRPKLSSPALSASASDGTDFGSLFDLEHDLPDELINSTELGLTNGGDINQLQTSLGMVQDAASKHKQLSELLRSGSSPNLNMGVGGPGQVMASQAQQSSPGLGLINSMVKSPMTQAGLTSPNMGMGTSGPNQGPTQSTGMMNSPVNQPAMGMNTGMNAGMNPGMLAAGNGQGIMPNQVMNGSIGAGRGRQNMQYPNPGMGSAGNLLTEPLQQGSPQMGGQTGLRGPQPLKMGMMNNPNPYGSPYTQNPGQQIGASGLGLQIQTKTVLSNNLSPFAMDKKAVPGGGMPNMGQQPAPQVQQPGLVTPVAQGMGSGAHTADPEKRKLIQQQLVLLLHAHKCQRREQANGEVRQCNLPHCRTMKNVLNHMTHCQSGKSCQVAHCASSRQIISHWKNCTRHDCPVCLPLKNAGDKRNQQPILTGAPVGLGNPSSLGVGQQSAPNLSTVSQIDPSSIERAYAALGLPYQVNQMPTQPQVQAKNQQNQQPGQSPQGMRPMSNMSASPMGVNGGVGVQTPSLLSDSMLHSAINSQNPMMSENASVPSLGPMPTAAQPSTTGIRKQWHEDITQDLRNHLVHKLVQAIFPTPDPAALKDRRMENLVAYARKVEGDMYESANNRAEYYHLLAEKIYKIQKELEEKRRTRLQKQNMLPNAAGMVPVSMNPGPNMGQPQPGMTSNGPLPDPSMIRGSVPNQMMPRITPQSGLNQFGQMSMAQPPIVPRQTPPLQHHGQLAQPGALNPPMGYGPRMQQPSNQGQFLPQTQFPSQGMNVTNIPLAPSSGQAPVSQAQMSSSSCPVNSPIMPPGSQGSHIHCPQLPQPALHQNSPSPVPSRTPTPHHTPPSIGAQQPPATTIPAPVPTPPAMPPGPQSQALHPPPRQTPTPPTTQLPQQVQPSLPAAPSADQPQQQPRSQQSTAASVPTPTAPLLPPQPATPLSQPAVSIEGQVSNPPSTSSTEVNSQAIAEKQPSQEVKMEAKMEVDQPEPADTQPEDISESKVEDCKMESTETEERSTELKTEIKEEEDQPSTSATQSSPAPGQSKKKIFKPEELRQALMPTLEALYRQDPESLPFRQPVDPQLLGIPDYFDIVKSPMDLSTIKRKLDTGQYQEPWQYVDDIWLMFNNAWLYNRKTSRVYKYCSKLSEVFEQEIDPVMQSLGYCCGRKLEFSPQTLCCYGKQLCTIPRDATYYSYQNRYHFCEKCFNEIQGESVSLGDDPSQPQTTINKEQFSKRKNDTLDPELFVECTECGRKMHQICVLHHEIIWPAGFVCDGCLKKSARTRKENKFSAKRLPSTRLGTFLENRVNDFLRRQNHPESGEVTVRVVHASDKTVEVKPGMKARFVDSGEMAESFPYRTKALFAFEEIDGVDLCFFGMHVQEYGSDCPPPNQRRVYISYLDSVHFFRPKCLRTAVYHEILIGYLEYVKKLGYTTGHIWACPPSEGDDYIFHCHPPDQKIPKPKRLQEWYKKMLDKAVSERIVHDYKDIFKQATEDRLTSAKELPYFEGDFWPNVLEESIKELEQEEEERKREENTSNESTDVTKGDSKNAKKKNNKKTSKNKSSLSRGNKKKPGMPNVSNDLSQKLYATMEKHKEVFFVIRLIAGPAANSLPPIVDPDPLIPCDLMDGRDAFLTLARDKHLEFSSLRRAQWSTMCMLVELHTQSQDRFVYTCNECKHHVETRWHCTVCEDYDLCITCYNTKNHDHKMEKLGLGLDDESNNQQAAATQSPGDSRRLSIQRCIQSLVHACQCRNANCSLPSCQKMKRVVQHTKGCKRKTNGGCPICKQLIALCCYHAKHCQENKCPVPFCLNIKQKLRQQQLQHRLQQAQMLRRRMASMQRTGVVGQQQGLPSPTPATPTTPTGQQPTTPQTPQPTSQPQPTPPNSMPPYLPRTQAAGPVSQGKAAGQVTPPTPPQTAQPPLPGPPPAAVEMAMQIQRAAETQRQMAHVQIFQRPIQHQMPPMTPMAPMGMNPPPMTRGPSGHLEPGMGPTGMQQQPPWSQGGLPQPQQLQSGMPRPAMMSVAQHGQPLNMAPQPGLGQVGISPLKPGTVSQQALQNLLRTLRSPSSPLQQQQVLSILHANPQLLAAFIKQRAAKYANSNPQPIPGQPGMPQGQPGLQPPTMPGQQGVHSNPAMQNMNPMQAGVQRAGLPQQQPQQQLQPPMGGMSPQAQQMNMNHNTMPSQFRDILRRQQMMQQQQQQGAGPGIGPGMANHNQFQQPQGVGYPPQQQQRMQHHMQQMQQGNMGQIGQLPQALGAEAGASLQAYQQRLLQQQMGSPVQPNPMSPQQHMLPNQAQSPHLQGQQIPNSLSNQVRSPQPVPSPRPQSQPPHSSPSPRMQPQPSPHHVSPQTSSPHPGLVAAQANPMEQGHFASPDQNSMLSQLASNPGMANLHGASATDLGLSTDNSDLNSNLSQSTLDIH
# Um-RPA (unmodified RPA heterotrimer) (Homo sapiens), one chain, as listed by the source, chain 1 of 3: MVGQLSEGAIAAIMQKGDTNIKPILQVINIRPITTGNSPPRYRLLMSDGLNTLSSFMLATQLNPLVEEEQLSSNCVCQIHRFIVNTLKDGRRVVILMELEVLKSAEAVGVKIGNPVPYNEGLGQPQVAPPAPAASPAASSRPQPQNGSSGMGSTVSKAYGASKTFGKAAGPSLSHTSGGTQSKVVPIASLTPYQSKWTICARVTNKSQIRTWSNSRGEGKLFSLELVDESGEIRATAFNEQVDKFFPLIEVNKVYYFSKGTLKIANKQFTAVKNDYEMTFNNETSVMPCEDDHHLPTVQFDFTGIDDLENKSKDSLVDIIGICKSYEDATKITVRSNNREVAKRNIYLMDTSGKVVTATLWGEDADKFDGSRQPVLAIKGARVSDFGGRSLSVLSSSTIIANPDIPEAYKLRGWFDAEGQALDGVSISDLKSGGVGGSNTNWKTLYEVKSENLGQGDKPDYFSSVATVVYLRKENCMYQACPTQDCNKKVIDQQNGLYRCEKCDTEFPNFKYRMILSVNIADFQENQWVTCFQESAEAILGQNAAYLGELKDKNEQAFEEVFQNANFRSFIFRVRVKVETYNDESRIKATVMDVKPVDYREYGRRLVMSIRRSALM
# Um-RPA (unmodified RPA heterotrimer) (Homo sapiens), one chain, as listed by the source, chain 3 of 3: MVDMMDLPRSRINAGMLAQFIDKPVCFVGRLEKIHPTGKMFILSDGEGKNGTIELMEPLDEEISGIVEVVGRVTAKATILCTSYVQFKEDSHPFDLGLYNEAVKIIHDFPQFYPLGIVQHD
# Um-RPA (unmodified RPA heterotrimer) (Homo sapiens), one chain, as listed by the source, chain 2 of 3: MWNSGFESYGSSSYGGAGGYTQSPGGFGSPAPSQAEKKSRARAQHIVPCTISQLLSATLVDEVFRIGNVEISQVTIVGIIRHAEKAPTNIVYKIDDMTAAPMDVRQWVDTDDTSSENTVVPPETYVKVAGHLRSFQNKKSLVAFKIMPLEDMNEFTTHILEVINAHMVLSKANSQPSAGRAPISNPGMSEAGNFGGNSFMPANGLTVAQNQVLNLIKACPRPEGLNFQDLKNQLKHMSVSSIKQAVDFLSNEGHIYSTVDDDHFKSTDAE
# Assays:
# [1] = tested on: Um-RPA (unmodified RPA heterotrimer) (Homo sapiens); test: EMSA; conditions: EMSA: 50 mM Tris-HCl pH 8.0, 2 mM DTT, 30 mM NaCl, 0.1 mg/ml BSA, 5% glycerol, 10 min 37 °C, FEN1/RPA flap EMSA: same with 20 mM NaCl, 20 uM EDTA, recombinant protein
# [2] = tested on: Ac-RPA (p300-acetylated RPA heterotrimer) (Homo sapiens); test: EMSA; conditions: EMSA: 50 mM Tris-HCl pH 8.0, 2 mM DTT, 30 mM NaCl, 0.1 mg/ml BSA, 5% glycerol, 10 min 37 °C, FEN1/RPA flap EMSA: same with 20 mM NaCl, 20 uM EDTA, recombinant protein
# [3] = tested on: ΔF-RPA, unmodified (Homo sapiens); test: EMSA; conditions: less than acetylated form; EMSA: 50 mM Tris-HCl pH 8.0, 2 mM DTT, 30 mM NaCl, 0.1 mg/ml BSA, 5% glycerol, 10 min 37 °C; FEN1/RPA flap EMSA: same with 20 mM NaCl, 20 uM EDTA; recombinant protein; protein details: C-terminal His6; label: 5'-TAMRA; single-stranded DNA
# [4] = target: RPA1 A1/A2, acetylated (Homo sapiens) (UniProt P27694); test: EMSA; conditions: increased versus unmodified; EMSA: 50 mM Tris-HCl pH 8.0, 2 mM DTT, 30 mM NaCl, 0.1 mg/ml BSA, 5% glycerol, 10 min 37 °C; FEN1/RPA flap EMSA: same with 20 mM NaCl, 20 uM EDTA; recombinant protein; protein details: C-terminal His6; label: 5'-TAMRA; single-stranded DNA
# [5] = target: RPA1 FAB, unmodified (Homo sapiens) (UniProt P27694); test: EMSA; conditions: less than acetylated form; EMSA: 50 mM Tris-HCl pH 8.0, 2 mM DTT, 30 mM NaCl, 0.1 mg/ml BSA, 5% glycerol, 10 min 37 °C; FEN1/RPA flap EMSA: same with 20 mM NaCl, 20 uM EDTA; recombinant protein; protein details: C-terminal His6; label: 5'-TAMRA; single-stranded DNA
# [6] = target: RPA1 A1/A2, unmodified (Homo sapiens) (UniProt P27694); test: EMSA; conditions: less than acetylated form; EMSA: 50 mM Tris-HCl pH 8.0, 2 mM DTT, 30 mM NaCl, 0.1 mg/ml BSA, 5% glycerol, 10 min 37 °C; FEN1/RPA flap EMSA: same with 20 mM NaCl, 20 uM EDTA; recombinant protein; protein details: C-terminal His6; label: 5'-TAMRA; single-stranded DNA
# [7] = target: RPA1 FAB, acetylated (Homo sapiens) (UniProt P27694); test: EMSA; conditions: increased versus unmodified; EMSA: 50 mM Tris-HCl pH 8.0, 2 mM DTT, 30 mM NaCl, 0.1 mg/ml BSA, 5% glycerol, 10 min 37 °C; FEN1/RPA flap EMSA: same with 20 mM NaCl, 20 uM EDTA; recombinant protein; protein details: C-terminal His6; label: 5'-TAMRA; single-stranded DNA
# [8] = target: RPA1 DBD-F, acetylated (Homo sapiens) (UniProt P27694); test: EMSA; conditions: 25-150 nM protein, 25 nM DNA; EMSA: 50 mM Tris-HCl pH 8.0, 2 mM DTT, 30 mM NaCl, 0.1 mg/ml BSA, 5% glycerol, 10 min 37 °C; FEN1/RPA flap EMSA: same with 20 mM NaCl, 20 uM EDTA; recombinant protein; protein details: C-terminal His6; label: 5'-TAMRA; single-stranded DNA
# [9] = tested on: ΔF-RPA, acetylated (Homo sapiens); test: EMSA; conditions: increased versus unmodified; EMSA: 50 mM Tris-HCl pH 8.0, 2 mM DTT, 30 mM NaCl, 0.1 mg/ml BSA, 5% glycerol, 10 min 37 °C; FEN1/RPA flap EMSA: same with 20 mM NaCl, 20 uM EDTA; recombinant protein; protein details: C-terminal His6; label: 5'-TAMRA; single-stranded DNA
# [10] = tested on: Um-RPA (unmodified RPA heterotrimer) (Homo sapiens); test: BLI; conditions: BLI: 1X HAT buffer, 31.25-250 nM RPA, recombinant protein, single-stranded DNA
# [11] = tested on: Ac-RPA (p300-acetylated RPA heterotrimer) (Homo sapiens); test: BLI; conditions: KD only in Fig. 4D, lower KD than Um-RPA, BLI: 1X HAT buffer, 31.25-250 nM RPA, recombinant protein, single-stranded DNA
# [12] = tested on: Um-RPA (unmodified RPA heterotrimer) (Homo sapiens); test: competition EMSA; conditions: unlabeled 28 nt competitor, EMSA: 50 mM Tris-HCl pH 8.0, 2 mM DTT, 30 mM NaCl, 0.1 mg/ml BSA, 5% glycerol, 10 min 37 °C, FEN1/RPA flap EMSA: same with 20 mM NaCl, 20 uM EDTA, recombinant protein, single-stranded DNA
# [13] = tested on: Ac-RPA (p300-acetylated RPA heterotrimer) (Homo sapiens); test: competition EMSA; conditions: EMSA: 50 mM Tris-HCl pH 8.0, 2 mM DTT, 30 mM NaCl, 0.1 mg/ml BSA, 5% glycerol, 10 min 37 °C, FEN1/RPA flap EMSA: same with 20 mM NaCl, 20 uM EDTA, recombinant protein, single-stranded DNA; for binding signal (% dissociated at 1000-fold competitor): Um-RPA fully displaced; for binding signal (% dissociated at 500-fold competitor): unlabeled 28 nt competitor
# [14] = target: p300 (UniProt Q09472); test: EMSA; conditions: p300 alone; EMSA: 50 mM Tris-HCl pH 8.0, 2 mM DTT, 30 mM NaCl, 0.1 mg/ml BSA, 5% glycerol, 10 min 37 °C; FEN1/RPA flap EMSA: same with 20 mM NaCl, 20 uM EDTA; recombinant protein; label: 3'-biotin (BLI), 5'-TAMRA (EMSA); single-stranded DNA
# [15] = 50 nM RPA alone, 5 nM DNA, label: IR700 on 5' end (Fig. 8), folded or branched DNA
# [16] = 12.5 nM RPA, 1.25 nM DNA, 5% DMSO, room temperature, label: 32P, single-stranded DNA
# [17] = label: 3'-biotin (BLI), 5'-32P (EMSA)
# [18] = 5-25 nM RPA, better than Um-RPA, single-stranded DNA
# [19] = with p300, no acetyl-CoA, higher KD than Ac-RPA
sequence,measurement,setting,value
GCCCAGTCACGTCGTTGTAAAACGGGTCGTGACTGGGAAAACCCTGGCG / TTAGTTAATTCACTGGCCGTCGTTTTACAACGACGTGACTGGG / CGCCAGGGTTTTCCCAGTCACGACCA [20 nt double flap (U26:D43:T49)],binding signal,[1]; [15],53 % bound
same,binding signal (% bound (complete)),[2]; [15],100
GGAGACCGAAGAGGAAAAGAAGGAGAGAGG [JJ.30 (30 nt)],binding signal,[1]; [16],17 % bound
same,binding signal,[2]; [16],77 % bound
TTCACGAGATTTACTTATTTCACTGCGGCT [LB.30 (30 nt)],binding result,[3],binds more weakly
same,binding result,[4],binds
same,binding result,[5],binds more weakly
same,binding result,[6],binds more weakly
same,binding result,[7],binds
same,binding result,[8],no binding
same,binding result,[9],binds
TTCACGCCTGTTAGTTAATT [LB.20 (20 nt)],binding result,"[1]; 5-25 nM RPA, smeared, dynamic binding, label: 3'-biotin (BLI), 5'-32P (EMSA), single-stranded DNA",binds more weakly
same,binding result,"[2]; 5-25 nM RPA, highest fold stimulation, label: 3'-biotin (BLI), 5'-32P (EMSA), single-stranded DNA",binds
same,binding result,"[10]; KD only in Fig. 4D, weaker than Ac-RPA, largest fold difference, label: 3'-biotin (BLI), 5'-32P (EMSA)",binds more weakly
same,binding result,"[10]; with p300, no acetyl-CoA, higher KD than Ac-RPA, label: 3'-biotin (BLI), 5'-32P (EMSA)",binds more weakly
same,binding result,[11]; [17],binds
TTCACGCCTGTTAGTTAATTCACT [LB.24 (24 nt)],binding result,"[1]; 5-25 nM RPA, smeared, dynamic binding, single-stranded DNA",binds more weakly
same,binding result,[2]; [18],binds
same,binding signal (% dissociated at 500-fold competitor),[12]; 100 nM RPA,80
same,binding signal (% dissociated at 1000-fold competitor),[13]; 100 nM RPA,77
same,binding signal (% dissociated at 500-fold competitor),[13]; 100 nM RPA,61
same,binding result,"[10]; KD only in Fig. 4D, weaker than Ac-RPA",binds more weakly
same,binding result,[10]; [19],binds more weakly
same,binding result,[11],binds
TTCACGCCTGTTAGTTAATTCACTGGCC [LB.28 (28 nt)],binding result,[2]; [18],binds
same,binding signal (% dissociated at 500-fold competitor),[12]; 50 nM RPA,80
same,binding signal (% dissociated at 1000-fold competitor),[13]; 50 nM RPA,60
same,binding signal (% dissociated at 500-fold competitor),[13]; 50 nM RPA,33
same,binding result,[10]; [19],binds
same,binding result,[11],binds
TTCACGCCTGTTAGTTAATTCACTGGCCGTAC [LB.32 (32 nt)],binding result,"[2]; 5-25 nM RPA, better than Um-RPA, label: 3'-biotin (BLI), 5'-32P (EMSA), single-stranded DNA",binds
same,binding result,[11]; [17],binds
TTCACTATAACTACCTAATCTTCTGGCCGTACTGAACTACTGACA [LB.45 (45 nt)],binding result,[14],no binding
same,binding result,"[1]; label: 3'-biotin (BLI), 5'-TAMRA (EMSA), single-stranded DNA",binds
same,binding result,"[2]; better than Um-RPA, label: 3'-biotin (BLI), 5'-TAMRA (EMSA), single-stranded DNA",binds
same,binding result,"[11]; label: 3'-biotin (BLI), 5'-TAMRA (EMSA)",binds

# The exact form of at least one protein or probe is not confirmed. For part of these data: No signal at the amounts used counts as a negative. For part of these data: The comparison behind a weaker result is the experiment's own reference, which may not be listed here. For part of these data: At least one verdict rests on a figure or table, not on a statement of the authors. For part of these data: Whether high values mean tight binding is not given here for every scale.
